Source: patent publication US20230000816A1, “SODIUM-GLUCOSE LINKED TRANSPORTER INHIBITORS FOR THE MANAGEMENT OF CHRONIC KIDNEY DISEASE, HYPERTENSION, AND HEART FAILURE IN COMPANION ANIMALS” (INCREVET, INC., priority 2019, published 2023)

Assays:
Sprague-Dawley rats = assay: PPAR-γ agonist (pioglitazone)-mediated fluid retention / plasma expansion model, 7 days, drugs in drinking water; assay type: in vivo, rat; conditions: pioglitazone diet, mean ± SEM
Text: It has been recognized in human clinical practice that an undesirable side effect of PPAR-γ agonists of the thiazolidinedione class is fluid retention and edema, which limits their use in patients with congestive heart failure. The mechanism of action of the thiazolidinediones is believed to be through stimulation of expression of the epithelial sodium channel (ENaC) in the kidney, resulting in an increased uptake of sodium ions from the distal tubule. Sodium retention and the associated expansion of extracellular fluid volume are characteristic features of congestive heart failure in multiple species. […] The sodium channel blocker amiloride was delivered in drinking water to a third group of rats as a comparator. Plasma expansion was measured by hematocrit. […] Food weight was recorded to measure consumption over the course of the experiment. […] Full bottles were pre-weighed and the weights recorded to allow consumption to be measured over the course of the experiment. On days 1 and 7, rats were warmed using a heating pad and lightly anesthetized using isoflurane. Using a sterile scalpel blade, a small tail nick was made on the distal one third of the tail. […] Plasma volume was determined using a microhematocrit capillary tube reader card. On day 7, rats, food and water bottles were again weighed and recorded and hematocrits were determined using blood collected by a tail nick.

purpose-bred beagles = assay: 24 h urine collection (glucose excretion, volume, electrolytes) in dogs; assay type: in vivo, dog; conditions: treatment group
Description: Groups of four purpose-bred beagles per cohort were administered ascending doses of bexagliflozin in the form of a proline co-crystal consisting of two moles of L-proline for every mole of bexagliflozin. The co-crystal was dissolved in 10% PEG400 and administered by oral gavage to dogs that had been fasted overnight. Control dogs were administered 10% PEG400. One hour after dosing, glucose solution (2 g kg^−1, 5 ml kg^−1) was administered by gavage. Serum glucose concentrations were quantitated by an automated clinical chemistry analyzer for samples collected before dosing, before glucose challenge, and 15, 30, 60, and 120 min after glucose challenge. Urine was collected from 0 to 4 h, 4 to 8 h and 8 to 24 h after dosing for electrolyte analyses (Na^+, K^+, Cl^− and Ca^2+) and glucose measurement. Whole blood samples of approximately 500 μL were collected from the cephalic vein 0, 0.25, 0.5, 1, 2, 4, 8, 12 and 24 h after dosing for pharmacokinetic analysis.
Urine output increased in the treatment group, consistent with an osmotic diuresis or with a role for the inhibited transporters in water reuptake in the proximal tubule.

| SMILES | Food Consumption (Sprague-Dawley rats) | food consumption vs control (purpose-bred beagles) | water consumption vs control (purpose-bred beagles; did not reach statistical significance) |
| --- | --- | --- | --- |
| N=C(N)NC(=O)c1nc(Cl)c(N)nc1N [Amiloride, reference compound] | 30.9 ± 1.1 g per 24 h | – | – |
| OC[C@H]1O[C@@H](c2ccc(Cl)c(Cc3ccc(OCCOC4CC4)cc3)c2)[C@H](O)[C@@H](O)[C@@H]1O [Bexagliflozin, (2S,3R,4R,5 S,6R)-2-(4-chloro-3-(4-(2-cyclopropoxyethoxy)benzyl)phenyl)-6-(hydroxymethyl)tetrahydro-2H-pyran-3,4,5-triol] | 34.4 ± 1.0 g per 24 h | no significant change in food consumption | trend toward higher water consumption |
